PubChem BioAssay AID1259424 – University of Nebraska Medical Center – 2018

Aim: 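Seek colon cancer survival genes behaving like KSR1, using a six-gene signature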 (primary screen)
Cells: human HCT116 colon cancer cells
Reagent: siRNA pool against human genes, 50 nM
Measurement: 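Six signature mRNAs by branched-DNA multiplex assay, scaled to two housekeeping genes and non-targeting median, log2; matched to mean KSR1 knockdown profile by Pearson correlation and euclidean distance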
Scale: mean correlation with KSR1 profile: higher = expression change more like KSR1 knockdown
In all, the deposit lists about 14,000 reagents; shown is an unselected part. 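Higher correlation or smaller distance means closer resemblance to KSR1 loss; control wells, including KSR1 knockdowns, recur on many plates.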 Further read-outs or replicates are left out here. Reagent sequences are not shown. Not stated in the record: the time to read-out.

{"gene": "ZBTB16 (zinc finger and BTB domain containing 16)", "mean correlation with KSR1 profile": -0.415}
{"gene": "NKAIN1 (sodium/potassium transporting ATPase interacting 1)", "mean correlation with KSR1 profile": -0.195}
{"gene": "UQCRH (ubiquinol-cytochrome c reductase hinge protein)", "mean correlation with KSR1 profile": 0.0914}
{"gene": "RPS15 (ribosomal protein S15)", "mean correlation with KSR1 profile": -0.189}
{"gene": "SLC48A1", "mean correlation with KSR1 profile": -0.592}
{"gene": "RND2 (Rho family GTPase 2)", "mean correlation with KSR1 profile": -0.284}
{"gene": "RBAK (RB associated KRAB zinc finger)", "mean correlation with KSR1 profile": -0.184}
{"gene": "C1QL1 (complement C1q like 1)", "mean correlation with KSR1 profile": 0.449}
{"gene": "PA2G4 (proliferation-associated 2G4)", "mean correlation with KSR1 profile": -0.0323}
{"gene": "LIN7C (lin-7 cell polarity scaffold C)", "mean correlation with KSR1 profile": -0.457}
{"gene": "GDPD3 (glycerophosphodiester phosphodiesterase domain containing 3)", "mean correlation with KSR1 profile": -0.141}
{"gene": "PROZ (protein Z, vitamin K dependent plasma glycoprotein)", "mean correlation with KSR1 profile": 0.757}

Already shown: 2 of the entries above.
{"gene": "LIN7C (lin-7 cell polarity scaffold C)", "mean correlation with KSR1 profile": -0.457}
{"gene": "GDPD3 (glycerophosphodiester phosphodiesterase domain containing 3)", "mean correlation with KSR1 profile": -0.141}

Further reagents follow:
{"gene": "ARGLU1 (arginine and glutamate rich 1)", "mean correlation with KSR1 profile": -0.289}
{"gene": "CXCL14 (C-X-C motif chemokine ligand 14)", "mean correlation with KSR1 profile": -0.554}
{"gene": "PRRG3 (proline rich and Gla domain 3)", "mean correlation with KSR1 profile": -0.473}
{"gene": "OXGR1 (oxoglutarate receptor 1)", "mean correlation with KSR1 profile": -0.23}
{"gene": "SH3BGRL2 (SH3 domain binding glutamate rich protein like 2)", "mean correlation with KSR1 profile": 0.426}
{"gene": "IL2RB (interleukin 2 receptor subunit beta)", "mean correlation with KSR1 profile": 0.159}
{"gene": "CSE1L (chromosome segregation 1 like)", "mean correlation with KSR1 profile": 0.234}
